Measurements reported in PubChem BioAssay AID1508600 (Functional Genomics Laboratory (NCATS/FGL), 2020).
Screen size: about 53,000 sequences; about 3,700 (7%) were called active.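 The calls were made as follows: active = gene knockdowns whose robust z-score for IL-1 alpha signal is at least 2 or at most -2, so actives lie on both sides; inactive = the rest.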 This is one part of the list.

Experiment: Components of the Cytosolic LPS Sensing Pathway: Gene Identification via Genome-wide siRNA Screen;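 also: robust z of the log signal after scaling to non-targeting control siRNA wells of the plate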
Conditions: RAW264.7 macrophages, IL-1a HTRF, actives lie on both sides, screened at 100 nM (by protocol), cells primed 5 h with Pam3CSK4 first
In short: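 Using IL-1a HTRF as read-out, the screen measured release from RAW264.7 cells after 48h siRNA knockdown (100 nM), 5 h Pam3CSK4 priming and 24 h cytosolic LipidA. Values were expressed relative to negative-control wells as robust z-scores.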

| Sequence | z-score |
| --- | --- |
| GCUGAUGGACAAAUUCCACTT against Rapgef1 | inactive: 0.505 |
| CCCGACGUAGGAUCUUUGATT against Ncdn | inactive: -1.36 |
| GCCUCACUCAGCAAAAGGATT against Ttc9c | active: -2.09 |
| GGAUCAGAGAAGGAAAAAATT against Hspa12a | inactive: -1.98 |
| GGCUUGACCUGCGUCUUCATT against 1700001P01Rik | inactive: 0.736 |
| GGAUUUUUCUUUUGAGCGATT against Vegfd | inactive: 0.0288 |
| GCUCCAACUACAUUGACUATT against Olfr1410 | inactive: -0.396 |
| GGAAAGACAUGAUACUGUCTT against Nr1i3 | inactive: 1.6 |
| CGUGUACAAGACCAACAACTT against Scg2 | inactive: 0.523 |
| GACUUUCAAUACUGUGAUUTT against H2-M10.2 | inactive: -1.66 |
| GGAUGUCUAGUUAUACAUUTT against Mbd3l1 | inactive: 1.21 |
| GGACCAGGUGAUGAAGAGGTT against Fzd4 | inactive: -1.03 |
| GGGAACAACACAUAAUGGATT against BC002059 | inactive: 0.617 |
| GGGUCGGUCUAUUAGGGAUTT against Rhbdf1 | inactive: 0.727 |
| GCUUAAAGAUCGAUCCCGCTT against Slc38a4 | inactive: 0.742 |
| GGCCAUGGCUACUAUUGUCTT against Tgoln1 | inactive: -1.22 |
| GCCAAUUGGUUCCCUGUAATT against 1700034E13Rik | active: -3.04 |
| CCCUUUGUGUCCUAGAUUGTT against Zfand3 | inactive: 0.266 |
| GGGUGUGCAUUCUUCUAUUTT against Olfr1242 | inactive: 0.536 |
| GGUUCUCGCUCUUAUCUGUTT against Angel2 | inactive: 0.353 |
| GGACAGUGCCUGAUAACCATT against Chrm4 | inactive: -1.31 |
| GGAACUUAGAAGUUUACAATT against Caml | inactive: -0.0418 |
| GCGAGUUUAAUGUUUAUGCTT against Pdgfra | inactive: -1.29 |
| GGAAUUAGUCUCCAAAUAUTT against Sh2d1b1 | inactive: 0.604 |
| GGAUCCUUAAGCUUGGAGCTT against Ascl2 | inactive: 0.0277 |
| GGAGAGGGUAGCUUUAAAUTT against Olfr801 | inactive: -0.612 |
| GGAACUGAUUCUUAGCUACTT against Lrrc39 | inactive: 0.822 |
| GGUAGUAGAAGCUGUUAACTT against Slc36a2 | inactive: 0.372 |
| GGAACAGUCGGCCAUUUAATT against Tmem98 | inactive: -0.553 |

In a second layout: entries from further up.
Sequence,z-score
GCUUAAAGAUCGAUCCCGCTT against Slc38a4,inactive: 0.742
GGCCAUGGCUACUAUUGUCTT against Tgoln1,inactive: -1.22
